{
  "sequences": {"note": "Amino acid sequences for entries named in this document (tags omitted).", "UniProt Q0JBA9, entry or part of it": "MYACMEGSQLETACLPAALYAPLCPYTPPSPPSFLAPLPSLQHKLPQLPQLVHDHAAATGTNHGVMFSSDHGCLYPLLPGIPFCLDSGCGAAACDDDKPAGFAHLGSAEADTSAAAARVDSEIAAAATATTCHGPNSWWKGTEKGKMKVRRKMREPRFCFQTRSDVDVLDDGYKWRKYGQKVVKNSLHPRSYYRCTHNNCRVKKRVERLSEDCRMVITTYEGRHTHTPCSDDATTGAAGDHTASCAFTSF"},
  "source": "paper PMC7819943",
  "about": "“Rice protein-binding microarrays: a tool to detect cis-acting elements near promoter regions in rice”",
  "note": "This is one part of the list.",
  "data": [
    {"molecular_target": "OsWRKY34 (Oryza sativa, UniProt Q0JBA9 1-250)", "assay": "protein-binding microarray (RPBM); PBS, 2% BSA, 51.3 ng/ul salmon testes DNA, 50 uM zinc acetate, 200 nM TF, 25 C, 1 h; high values mean tight binding", "conditions": "protein: recombinant; tags: N-terminal polyhistidine and DsRed monomer fusion (pET32a); label: CyDye5-dUTP incorporated in the synthesized complementary strand; 3' TTTTT single-stranded linker to array surface; dsDNA, one strand shown", "how_it_was_run": "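The binding signal is fluorescence intensity per feature, in arbitrary units, read on an Axon 4000B scanner. Polyhistidine- and DsRed-tagged transcription factors (N-terminal fusions) from E. coli BL21-CodonPlus were purified on Ni–NTA and applied at 200 nM for 1 h at 25 °C to a double-stranded, BSA-blocked custom Agilent array in buffer with 50 µM zinc acetate.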", "values": [
      {"sequence": "AGAATATGTCGTTGGCGACCTGCCGGTCCAGCATCACCTCCGGAGTCACCTAGTGCAG", "binding signal": "8820 fluorescence intensity (a.u.)"},
      {"sequence": "TTGCCCGTAAGTATCTTTCTCATCTTCTTTTTTTCCTTTTCGGAGTCACCTAGTGCAG", "binding signal": "14500 fluorescence intensity (a.u.)"},
      {"sequence": "AGCACCTTTTTCATTGTAAGAGCATCCCAGCAGCTTATCCCGGAGTCACCTAGTGCAG", "binding signal": "8170 fluorescence intensity (a.u.)"},
      {"sequence": "AAGTTCATGGATGTCCTGTTGCCCATCCGTATTTCCTTTCCGGAGTCACCTAGTGCAG", "binding signal": "9720 fluorescence intensity (a.u.)"},
      {"sequence": "AGTGTTGACTTTTAAATTAATAAACTGTTTTGGTTTATTACGGAGTCACCTAGTGCAG", "binding signal": "10500 fluorescence intensity (a.u.)"},
      {"sequence": "ACTGTAGCCCATTTTTGATATGGCCAAGGCCCACATAGCACGGAGTCACCTAGTGCAG", "binding signal": "8260 fluorescence intensity (a.u.)"},
      {"sequence": "TATTCCCTTCTCATTTCTCCATGCTACTCTTTGTTTTCATCGGAGTCACCTAGTGCAG", "binding signal": "9240 fluorescence intensity (a.u.)"},
      {"sequence": "GCATTATATTTTTGACCTGTTCATTCCATTATGTTAGAATCGGAGTCACCTAGTGCAG", "binding signal": "8790 fluorescence intensity (a.u.)"},
      {"sequence": "TCTCTTATACTGATTTTTGGGTCCAATCCCTTACCGTTGACGGAGTCACCTAGTGCAG", "binding signal": "8150 fluorescence intensity (a.u.)"},
      {"sequence": "TCTCCATGCTATTCATTCCGTTTCTTAATATATGTCAATTCGGAGTCACCTAGTGCAG", "binding signal": "10600 fluorescence intensity (a.u.)"},
      {"sequence": "TTCCTTGTTCTAGTGTTTCTATTTTTTATTTTTGGCTCAACGGAGTCACCTAGTGCAG", "binding signal": "10200 fluorescence intensity (a.u.)"},
      {"sequence": "CGACCGCGCGCAACCACAGCCACCGCCCACAAACTCCAGTCGGAGTCACCTAGTGCAG", "binding signal": "8640 fluorescence intensity (a.u.)"},
      {"sequence": "TGCTCCACTCTGTTTTTTTTACCAAACACTATTTTTTTAACGGAGTCACCTAGTGCAG", "binding signal": "8210 fluorescence intensity (a.u.)"},
      {"sequence": "TTTTTGTTCGACCATTCACATCTCGACCAGTCGATTTTCTCGGAGTCACCTAGTGCAG", "binding signal": "9200 fluorescence intensity (a.u.)"},
      {"sequence": "CCTGCACACAACGCCGCCGCCGTTATTATATATGAACGTTCGGAGTCACCTAGTGCAG", "binding signal": "10900 fluorescence intensity (a.u.)"},
      {"sequence": "CTTTGATGTGGGTTTTTCTAGTTCCTTCTTCGAGTTCATTCGGAGTCACCTAGTGCAG", "binding signal": "8160 fluorescence intensity (a.u.)"},
      {"sequence": "TGTGGGCTGCGGTTGACGAGGAGGGAGGGAGGTCGCGATGCGGAGTCACCTAGTGCAG", "binding signal": "8420 fluorescence intensity (a.u.)"},
      {"sequence": "GGCCCCACCTGCAGCCTCACATCACAAAGCCATCAAAACCCGGAGTCACCTAGTGCAG", "binding signal": "9080 fluorescence intensity (a.u.)"},
      {"sequence": "TTATCACGCTTCTAGCTTCATTTAAGCCGTCCAAAACCCTCGGAGTCACCTAGTGCAG", "binding signal": "8090 fluorescence intensity (a.u.)"},
      {"sequence": "CCTCCTCGCGTACGGTTTTTCCCCTTGCGAGATCCATCTCCGGAGTCACCTAGTGCAG", "binding signal": "8880 fluorescence intensity (a.u.)"},
      {"sequence": "CCACACCACGCGTTTCGTCTCACCCGGGATTTTTTTTTTCCGGAGTCACCTAGTGCAG", "binding signal": "14000 fluorescence intensity (a.u.)"},
      {"sequence": "TTTTTTTACTTGTTCATCATATTATTTAACTATTAATTTCCGGAGTCACCTAGTGCAG", "binding signal": "8560 fluorescence intensity (a.u.)"},
      {"sequence": "TTCTTTTCTTTCTCCCTATCTTCAGTTTTGCATTGCGAGACGGAGTCACCTAGTGCAG", "binding signal": "8040 fluorescence intensity (a.u.)"},
      {"sequence": "GCGGAGGAAAGGTGGGGTGGTAAAAAACGGAAAAACCGGACGGAGTCACCTAGTGCAG", "binding signal": "8960 fluorescence intensity (a.u.)"},
      {"sequence": "TGCCGTCTGCGGCGGGGCGAAATGTGTGGTGTGGGCTAAACGGAGTCACCTAGTGCAG", "binding signal": "9850 fluorescence intensity (a.u.)"},
      {"sequence": "GTTCGCGCAAAGCACGCTGCTTTTCTCCGCTTTGCGAGCACGGAGTCACCTAGTGCAG", "binding signal": "9530 fluorescence intensity (a.u.)"},
      {"sequence": "AAAAGCCACCATTTACCTAGTGTTTTCACTTTGGACGGAGCGGAGTCACCTAGTGCAG", "binding signal": "9420 fluorescence intensity (a.u.)"},
      {"sequence": "AAGGATAAACAAGTGCGATGAAGTTACACTCAAAACTAAACGGAGTCACCTAGTGCAG", "binding signal": "8210 fluorescence intensity (a.u.)"},
      {"sequence": "GTTTGACTTTTTTTTTACGGGGAGAATTCTCCTTTGCAATCGGAGTCACCTAGTGCAG", "binding signal": "14900 fluorescence intensity (a.u.)"},
      {"sequence": "CATCCCTAGCCACTACCTACCCTTTGACAAGCTAGTCCTTCGGAGTCACCTAGTGCAG", "binding signal": "9820 fluorescence intensity (a.u.)"},
      {"sequence": "GGCAGTATTGTGTCTGGTTTTAGCTAACGTGGCGTATACGCGGAGTCACCTAGTGCAG", "binding signal": "8090 fluorescence intensity (a.u.)"},
      {"sequence": "TCTTCCGTATTTAAGTGATCGGCACTCAGCAGCTCTGTGACGGAGTCACCTAGTGCAG", "binding signal": "9290 fluorescence intensity (a.u.)"},
      {"sequence": "GCTGTGGAGTGTGGAGTGCCAATTACTATAGAGATGAACCCGGAGTCACCTAGTGCAG", "binding signal": "9210 fluorescence intensity (a.u.)"},
      {"sequence": "AATTGTTTTATGATCCTAGTATTCCTTGTTAAGTTACATTCGGAGTCACCTAGTGCAG", "binding signal": "10100 fluorescence intensity (a.u.)"},
      {"sequence": "TTCACCTGCGTCCCGGGGATCCGGGCCTCGGGCTGCGGCCCGGAGTCACCTAGTGCAG", "binding signal": "8400 fluorescence intensity (a.u.)"},
      {"sequence": "GAGGTAAGATTAGGGTTAGGGTTTCGATCTTTTCGATCCGCGGAGTCACCTAGTGCAG", "binding signal": "8680 fluorescence intensity (a.u.)"},
      {"sequence": "CATCCGCTGCCTGAAACATCTCTCTCCATCTCTCTTTAAACGGAGTCACCTAGTGCAG", "binding signal": "11200 fluorescence intensity (a.u.)"},
      {"sequence": "CCAGTTGACCAATACCAACCGATCCTTACCCGTTCCTCTTCGGAGTCACCTAGTGCAG", "binding signal": "9380 fluorescence intensity (a.u.)"},
      {"sequence": "GGAGATACGGCGAGGGGAGGGGACGGAGGGGCGGGGTGCGCGGAGTCACCTAGTGCAG", "binding signal": "24700 fluorescence intensity (a.u.)"},
      {"sequence": "AACCAGCCCATCTAGCCTTGTCATCAACAGCATAAACAAACGGAGTCACCTAGTGCAG", "binding signal": "8360 fluorescence intensity (a.u.)"},
      {"sequence": "GACTCTCCTGGCCGCTGTCTAGTTGTGCATCTAGCCATTTCGGAGTCACCTAGTGCAG", "binding signal": "9180 fluorescence intensity (a.u.)"},
      {"sequence": "ATCATCCCATTTGTATATTCCCTAATCTTACATTCTCTGTCGGAGTCACCTAGTGCAG", "binding signal": "11400 fluorescence intensity (a.u.)"},
      {"sequence": "GCTGAAACAAACTTTCTCAGTCCTATCCACATATCCGACGCGGAGTCACCTAGTGCAG", "binding signal": "8560 fluorescence intensity (a.u.)"},
      {"sequence": "TATGGTTTGTATCGGCTTTCGCGCTGTTTTGGTAAAACCTCGGAGTCACCTAGTGCAG", "binding signal": "10600 fluorescence intensity (a.u.)"},
      {"sequence": "ACGAGGTCGCCGTCGGCCACCTCTACCGCTGTCGCCGCCTCGGAGTCACCTAGTGCAG", "binding signal": "11000 fluorescence intensity (a.u.)"},
      {"sequence": "TTGTTACATACACATCGCTATGCCTATGCATCATTTATCTCGGAGTCACCTAGTGCAG", "binding signal": "8100 fluorescence intensity (a.u.)"},
      {"sequence": "GATCTATCGAAGCTTTCTAACACTATGGATCTTTGACCATCGGAGTCACCTAGTGCAG", "binding signal": "8410 fluorescence intensity (a.u.)"},
      {"sequence": "CGCGGCCTCCTCGCCGGTAAACCCCACCACCTCGACATTACGGAGTCACCTAGTGCAG", "binding signal": "8420 fluorescence intensity (a.u.)"},
      {"sequence": "CTCGCCTCGCCGCCTTTTCTTCGCCATCTTTTTCGATTTCCGGAGTCACCTAGTGCAG", "binding signal": "18800 fluorescence intensity (a.u.)"},
      {"sequence": "ACATCACAATACCAACTGGAACCCTGATTAACGATTTCCACGGAGTCACCTAGTGCAG", "binding signal": "8910 fluorescence intensity (a.u.)"},
      {"sequence": "CAGCTAAATGGTCCATCTGATATATATTGCCCGATCCGAACGGAGTCACCTAGTGCAG", "binding signal": "8840 fluorescence intensity (a.u.)"},
      {"sequence": "AGAGTTTTTTTTGTCAAAATTTATGTTTTAGCCTTTGCTTCGGAGTCACCTAGTGCAG", "binding signal": "9960 fluorescence intensity (a.u.)"},
      {"sequence": "GTGTAGTACCAAACTGCTTTTCGTTAATGCTCATATCAGTCGGAGTCACCTAGTGCAG", "binding signal": "8290 fluorescence intensity (a.u.)"},
      {"sequence": "TTTTCCTTTACTTCTGAACTTATTTGCTTCTCCTTTTCCTCGGAGTCACCTAGTGCAG", "binding signal": "9330 fluorescence intensity (a.u.)"}
    ]}
  ]
}
